# Assay results taken from patent publication US9978954B2, “Benzobis (thiadiazole) derivative, ink comprising same, and organic electronic device comprising same” (UBE INDUSTRIES, LTD., priority 2013, dated 2018).
# Experiments:
# [1] = Field-effect mobility of organic TFT, organic semiconductor layer by vacuum deposition, incl. after being left in the atmosphere; conditions: drain voltage 100 V, initial
# [2] = Field-effect mobility of organic TFT, organic semiconductor layer by spin-coating
# [3] = ink 0.3 wt % in mesitylene heated at 130° C., PS substrate, no annealing, drain voltage 100 V
# [4] = ink 0.3 wt % in mesitylene heated at 130° C., PVP substrate, heated at 180° C. for 35 minutes, drain voltage 100 V
# [5] = ink 0.1 wt % in chloroform heated at 70° C., PVP substrate, heated at 180° C. for 35 minutes, drain voltage 100 V
# [6] = ink 0.3 wt % in 1,2-dichlorobenzene heated at 130° C., PS substrate, heated at 180° C. for 35 minutes, drain voltage 100 V
compound,measurement,setting,value
"FC(F)(F)c1ccc(-c2ccc(-c3c4c(c(-c5ccc(-c6ccc(C(F)(F)F)cc6)s5)c5nsnc35)N=S=N4)s2)cc1 [Compound (RC2), 4,8-bis[5-(4-(trifluoromethyl)phenyl)thiophene-2-yl]benzo[1,2-c:4,5-c′]bis[1,2,5]thiadiazole, reference compound]",field-effect mobility (μ),[1]; HMDS-modified substrate,3.9×10^−1 cm^2/Vs
same,field-effect mobility (μ),[1]; PS substrate,4.1×10^−1 cm^2/Vs
"FC(F)(F)c1cc(-c2ccc(-c3c4c(c(-c5ccc(-c6cc(C(F)(F)F)cc(C(F)(F)F)c6)s5)c5nsnc35)N=S=N4)s2)cc(C(F)(F)F)c1 [Compound (C3), 4,8-bis[5-(3,5-bis(trifluoromethyl)phenyl)thiophene-2-yl]benzo[1,2-c:4,5-c′]bis[1,2,5]thiadiazole]",field-effect mobility (μ),[1]; HMDS-modified substrate,1.8×10^−4 cm^2/Vs
same,field-effect mobility (μ),[1]; PS substrate,5.2×10^−4 cm^2/Vs
"FC(F)(F)Oc1ccc(-c2ccc(-c3c4c(c(-c5ccc(-c6ccc(OC(F)(F)F)cc6)s5)c5nsnc35)N=S=N4)s2)cc1 [Compound (RC1), 4,8-bis[5-(4-(trifluoromethoxy)phenyl)thiophene-2-yl]benzo[1,2-c:4,5-c′]bis[1,2,5]thiadiazole, reference compound]",field-effect mobility (μ),[2]; [3],7.0×10^−4 cm^2/Vs
same,field-effect mobility (μ),[2]; [4],did not have the transistor characteristics
same,field-effect mobility (μ),[1]; HMDS-modified substrate,5.8×10^−1 cm^2/Vs
same,field-effect mobility (μ),[1]; PS substrate,1.2×10^0 cm^2/Vs
"FC(F)(F)c1cccc(-c2ccc(-c3c4c(c(-c5ccc(-c6cccc(C(F)(F)F)c6)s5)c5nsnc35)N=S=N4)s2)c1 [Compound (C2), 4,8-bis[5-(3-(trifluoromethyl)phenyl)thiophene-2-yl]benzo[1,2-c:4,5-c′]bis[1,2,5]thiadiazole]",field-effect mobility (μ),"[2]; ink 0.3 wt % in chlorobenzene heated at 130° C., CYC substrate, heated at 150° C. for 35 minutes, drain voltage 100 V",4.5×10^−1 cm^2/Vs
same,field-effect mobility (μ),"[2]; ink 0.3 wt % in chlorobenzene heated at 130° C., PS substrate, no annealing, drain voltage 100 V",2.9×10^−2 cm^2/Vs
same,field-effect mobility (μ),"[2]; ink 0.3 wt % in chlorobenzene heated at 130° C., PVP substrate, heated at 120° C. for 35 minutes, drain voltage 100 V",3.4×10^−1 cm^2/Vs
same,field-effect mobility (μ),[1]; HMDS-modified substrate,3.9×10^−1 cm^2/Vs
same,field-effect mobility (μ),[1]; PS substrate,1.4×10^−2 cm^2/Vs
"FC(F)(F)Oc1ccccc1-c1ccc(-c2c3c(c(-c4ccc(-c5ccccc5OC(F)(F)F)s4)c4nsnc24)N=S=N3)s1 [Compound (RR1), 4,8-bis[5-(2-(trifluoromethoxy)phenyl)thiophene-2-yl]benzo[1,2-c:4,5-c′]bis[1,2,5]thiadiazole, reference compound]",field-effect mobility (μ),[2]; [3],6.2×10^−5 cm^2/Vs
same,field-effect mobility (μ),[2]; [4],did not have the transistor characteristics
same,field-effect mobility (μ),[1]; HMDS-modified substrate,6.4×10^−2 cm^2/Vs
same,field-effect mobility (μ),[1]; PS substrate,1.7×10^−1 cm^2/Vs
"CCCCCCc1ccc(-c2ccc(-c3c4c(c(-c5ccc(-c6ccc(CCCCCC)c(C#N)c6)s5)c5nsnc35)N=S=N4)s2)cc1C#N [Compound (C7), 4,8-bis[5-(3-cyano-4-hexylphenyl)thiophene-2-yl]benzo[1,2-c:4,5-c′]bis[1,2,5]thiadiazole]",field-effect mobility (μ),"[2]; ink 0.3 wt % in chloroform heated at 60° C., CYC substrate, heated at 150° C. for 35 minutes, drain voltage 100 V",9.0×10^−4 cm^2/Vs
same,field-effect mobility (μ),"[2]; ink 0.3 wt % in chloroform heated at 60° C., PS substrate, heated at 150° C. for 35 minutes, drain voltage 100 V",1.0×10^−3 cm^2/Vs
same,field-effect mobility (μ),"[2]; ink 0.3 wt % in chloroform heated at 60° C., PVP substrate, heated at 150° C. for 35 minutes, drain voltage 100 V",2.5×10^−3 cm^2/Vs
same,field-effect mobility (μ),"[2]; ink 0.3 wt % in chloroform heated at 60° C., PVP substrate, heated at 180° C. for 35 minutes, drain voltage 100 V",7.3×10^−3 cm^2/Vs
"FC(F)(F)Sc1ccc(-c2ccc(-c3c4c(c(-c5ccc(-c6ccc(SC(F)(F)F)cc6)s5)c5nsnc35)N=S=N4)s2)cc1 [Compound (RC5), 4,8-bis[5-(4-((trifluoromethyl)thio)phenyl)thiophene-2-yl]benzo[1,2-c:4,5-c′]bis[1,2,5]thiadiazole, reference compound]",field-effect mobility (μ),[1]; HMDS-modified substrate,3.9×10^−1 cm^2/Vs
same,field-effect mobility (μ),[1]; PS substrate,7.1×10^−1 cm^2/Vs
"FC(F)(F)Sc1cccc(-c2ccc(-c3c4c(c(-c5ccc(-c6cccc(SC(F)(F)F)c6)s5)c5nsnc35)N=S=N4)s2)c1 [Compound (C6), 4,8-bis[5-(3-((trifluoromethyl)thio)phenyl)thiophene-2-yl]benzo[1,2-c:4,5-c′]bis[1,2,5]thiadiazole]",field-effect mobility (μ),"[2]; ink 0.3 wt % in mesitylene heated at 130° C., CYC substrate, no annealing, drain voltage 100 V",4.2×10^−2 cm^2/Vs
same,field-effect mobility (μ),[2]; [3],2.1×10^−2 cm^2/Vs
same,field-effect mobility (μ),"[2]; ink 0.3 wt % in mesitylene heated at 130° C., PVP substrate, heated at 120° C. for 35 minutes, drain voltage 100 V",3.9×10^−1 cm^2/Vs
same,field-effect mobility (μ),[1]; HMDS-modified substrate,4.0×10^−1 cm^2/Vs
same,field-effect mobility (μ),[1]; PS substrate,9.3×10^−2 cm^2/Vs
"CCCCCCCCCCCCc1ccc(-c2ccc(-c3c4c(c(-c5ccc(-c6ccc(CCCCCCCCCCCC)c(C(F)(F)F)c6)s5)c5nsnc35)N=S=N4)s2)cc1C(F)(F)F [Compound (C28), 4,8-bis[5-(4-dodecyl-3-(trifluoromethyl)phenyl)thiophene-2-yl]benzo[1,2-c:4,5-c′]bis[1,2,5]thiadiazole]",field-effect mobility (μ),[2]; [5],1.7×10^0 cm^2/Vs
same,field-effect mobility (μ),"[2]; ink 0.1 wt % in chloroform heated at 70° C., bare substrate, heated at 180° C. for 35 minutes, drain voltage 100 V",8.0×10^−1 cm^2/Vs
"CCCCCCCc1cc(-c2ccc(-c3c4c(c(-c5ccc(-c6ccc(C#N)c(CCCCCCC)c6)s5)c5nsnc35)N=S=N4)s2)ccc1C#N [Compound (C13), 4,8-bis[5-(4-cyano-3-heptylphenyl)thiophene-2-yl]benzo[1,2-c:4,5-c′]bis[1,2,5]thiadiazole]",field-effect mobility (μ),"[2]; ink 0.1 wt % in chloroform prepared at room temperature, CYC substrate, heated at 240° C. for 35 minutes, drain voltage 100 V",1.4×10^0 cm^2/Vs
same,field-effect mobility (μ),"[2]; ink 0.1 wt % in chloroform prepared at room temperature, PVP substrate, heated at 180° C. for 35 minutes, drain voltage 90 V",6.8×10^−1 cm^2/Vs
same,field-effect mobility (μ),"[2]; ink 0.1 wt % in chloroform prepared at room temperature, bare substrate, heated at 240° C. for 35 minutes, drain voltage 100 V",7.9×10^−1 cm^2/Vs
"CCCCCCCCCCCCCCCCCCc1cc(-c2ccc(-c3c4c(c(-c5ccc(-c6ccc(C#N)c(CCCCCCCCCCCCCCCCCC)c6)s5)c5nsnc35)N=S=N4)s2)ccc1C#N [Compound (C20), 4,8-bis[5-(4-cyano-3-octadecylphenyl)thiophene-2-yl]benzo[1,2-c:4,5-c′]bis[1,2,5]thiadiazole]",field-effect mobility (μ),"[2]; ink 0.1 wt % in chloroform heated at 70° C., PVP substrate, heated at 180° C. for 35 minutes, drain voltage 40 V",3.0×10^0 cm^2/Vs
same,field-effect mobility (μ),"[2]; ink 0.1 wt % in chloroform heated at 70° C., bare substrate, heated at 120° C. for 35 minutes, drain voltage 80 V",2.3×10^0 cm^2/Vs
CCCCC(CC)Cc1ccc(-c2ccc(-c3c4c(c(-c5ccc(-c6ccc(CC(CC)CCCC)c(C(F)(F)F)c6)s5)c5nsnc35)N=S=N4)s2)cc1C(F)(F)F (stereo not shown) [Compound (C31)],field-effect mobility (μ),"[2]; ink 0.1 wt % in chloroform prepared at room temperature, PVP substrate, heated at 150° C. for 35 minutes, drain voltage 100 V",4.7×10^−1 cm^2/Vs
same,field-effect mobility (μ),"[2]; ink 0.1 wt % in chloroform prepared at room temperature, bare substrate, no annealing, drain voltage 100 V",5.1×10^−1 cm^2/Vs
"CCCCCCc1ccc(-c2ccc(-c3c4c(c(-c5ccc(-c6ccc(CCCCCC)c(C(F)(F)F)c6)s5)c5nsnc35)N=S=N4)s2)cc1C(F)(F)F [Compound (C9), 4,8-bis[5-(4-hexyl-3-(trifluoromethyl)phenyl)thiophene-2-yl]benzo[1,2-c:4,5-c′]bis[1,2,5]thiadiazole]",field-effect mobility (μ),[2]; [5],8.9×10^−1 cm^2/Vs
same,field-effect mobility (μ),"[2]; ink 0.1 wt % in chloroform heated at 70° C., bare substrate, heated at 150° C. for 35 minutes, drain voltage 100 V",5.7×10^−1 cm^2/Vs
same,field-effect mobility (μ),"[2]; ink 0.3 wt % in xylene heated at 70° C., CYC substrate, no annealing, drain voltage 100 V",3.1×10^−1 cm^2/Vs
same,field-effect mobility (μ),"[2]; ink 0.3 wt % in xylene heated at 70° C., PS substrate, no annealing, drain voltage 100 V",5.1×10^−3 cm^2/Vs
same,field-effect mobility (μ),"[2]; ink 0.3 wt % in xylene heated at 70° C., PVP substrate, heated at 180° C. for 35 minutes, drain voltage 100 V",4.8×10^−1 cm^2/Vs
"CCCCCCCCCCC(F)(F)c1cccc(-c2ccc(-c3c4c(c(-c5ccc(-c6cccc(C(F)(F)CCCCCCCCCC)c6)s5)c5nsnc35)N=S=N4)s2)c1 [Compound (C4), 4,8-bis[5-(3-(1,1-difluoroundecyl)phenyl)thiophene-2-yl]benzo[1,2-c:4,5-c′]bis[1,2,5]thiadiazole]",field-effect mobility (μ),[2]; [6],3.8×10^−1 cm^2/Vs
same,field-effect mobility (μ),"[2]; ink 0.5 wt % in mesitylene heated at 130° C., CYC substrate, no annealing, drain voltage 100 V",2.7×10^−1 cm^2/Vs
same,field-effect mobility (μ),"[2]; ink 0.5 wt % in mesitylene heated at 130° C., PVP substrate, no annealing, drain voltage 100 V",2.7×10^−1 cm^2/Vs
"4,8-bis[5-(4-cyano-3-(2-methylhexyl)phenyl)thiophene-2-yl]benzo[1,2-c:4,5-c′]bis[1,2,5]thiadiazole [Compound (C29)]",field-effect mobility (μ),"[2]; ink 0.1 wt % in chloroform heated at 60° C., PVP substrate, heated at 180° C. for 35 minutes, drain voltage 100 V",1.8×10^0 cm^2/Vs
same,field-effect mobility (μ),"[2]; ink 0.1 wt % in chloroform heated at 60° C., bare substrate, heated at 180° C. for 35 minutes, drain voltage 100 V",2.0×10^0 cm^2/Vs
"CCCCCCCCCCC(F)(F)c1ccc(-c2ccc(-c3c4c(c(-c5ccc(-c6ccc(C(F)(F)CCCCCCCCCC)cc6)s5)c5nsnc35)N=S=N4)s2)cc1 [Compound (RC3), 4,8-bis[5-(4-(1,1-difluoroundecyl)phenyl)thiophene-2-yl]benzo[1,2-c:4,5-c′]bis[1,2,5]thiadiazole, reference compound]",field-effect mobility (μ),[2]; [6],1.0×10^−1 cm^2/Vs
same,field-effect mobility (μ),"[2]; ink 0.3 wt % in 1,2-dichlorobenzene heated at 130° C., PVP substrate, no annealing, drain voltage 100 V",6.0×10^−2 cm^2/Vs

# Some entries repeat one wording, which the source may state once for all of them.
